Reference: PubChem BioAssay AID1053208 (Peter MacCallum Cancer Centre, 2014)

Screen: 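Synthetic lethal interactions between gene loss and doxorubicin in osteosarcoma cells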 (primary screen)
Cell system: mouse osteosarcoma cells, early-passage culture from an engineered mouse model of fibroblastic bone tumour
Reagents: siRNA pool against mouse genes, 40 nM
Duration: about 120 h (48 h before drug, then 72 h with drug)
Treatment: doxorubicin 100 nM for 72 h, roughly 30-40% inhibitory dose
Detection: 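Luminescent ATP signal taken as viability with or without 100 nM doxorubicin for 72 h; mean of two wells set against non-targeting siRNA and turned into robust z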
Scale: viability z-score with doxorubicin and doxorubicin viability vs non-targeting: higher = more viable cells under doxorubicin; viability z-score without drug: higher = more viable cells with knock-down alone; z-score of drug to no-drug ratio: higher = less drug sensitisation by knock-down
Hit rule: 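a pool counts as active when its viability z-score with doxorubicin is -2 or below and its z-score without drug lies between -2 and 2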
Shown is one part, drawn at random, of about 17,000 reagents. Over the whole deposit, 788 (4.7%) got an active call. 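Calls rest on z-score classes alone; an extra cut-off of viability at most 70% of control was not applied to them.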

target	combined z-score class	viability z-score with doxorubicin	viability z-score without drug	z-score of drug to no-drug ratio	doxorubicin viability vs non-targeting	Outcome
Ntn1 (GeneID 18208)	no change with or without drug	0.34	-0.84	1.12	0.97	inactive
Ndst1 (GeneID 15531)	no change with or without drug	-0.34	-1.52	0.9	0.91	inactive
Tuba3b (GeneID 22147)	no change with or without drug	0.9	0	1.01	1.02	inactive
Polr2j (GeneID 20022)	low cell count with and without drug	-3.37	-2.19	-2.25	0.64	inactive
Nkg7 (GeneID 72310)	no change with or without drug	0.67	-0.84	1.46	1	inactive
Hus1b (GeneID 210554)	no change with or without drug	-0.56	-1.18	0.34	0.89	inactive
Epn1 (GeneID 13854)	no change with or without drug	-1.35	-1.18	-0.56	0.82	inactive
Rpl26 (GeneID 19941)	low cell count with and without drug	-4.38	-2.19	-3.48	0.55	inactive
Fgd5 (GeneID 232237)	no change with or without drug	-0.45	0.34	-0.56	0.9	inactive
Or5aq6 (GeneID 258762)	high cell count without drug only	-0.22	2.53	-1.57	0.92	inactive
Bola2 (GeneID 66162)	no change with or without drug	-0.9	-0.34	-0.67	0.86	inactive
Nubp2 (GeneID 26426)	no change with or without drug	-0.56	-1.18	0.34	0.89	inactive
A930002I21Rik (GeneID 109226)	no change with or without drug	1.69	1.18	1.01	1.09	inactive
Rnf38 (GeneID 73469)	no change with or without drug	0.56	0.67	0.22	0.99	inactive
B4galnt3 (GeneID 330406)	no change with or without drug	0	-0.17	0.22	0.94	inactive
Ear4 (GeneID 53877)	high cell count without drug only	1.46	4.38	-1.12	1.07	inactive
B3gat3 (GeneID 72727)	no change with or without drug	0.34	1.18	-0.34	0.97	inactive
Abcb8 (GeneID 74610)	no change with or without drug	0.22	-0.17	0.45	0.96	inactive
4930451E10Rik (GeneID 78111)	high cell count without drug only	0.79	2.53	-0.67	1.01	inactive
Dgkb (GeneID 217480)	no change with or without drug	-0.22	-1.52	1.01	0.92	inactive
Pdk2 (GeneID 18604)	no change with or without drug	0.34	-0.51	0.79	0.97	inactive
Cyp4f15 (GeneID 106648)	no change with or without drug	-0.22	-0.51	0.22	0.92	inactive
Oga (GeneID 76055)	no change with or without drug	-0.56	-0.17	-0.34	0.89	inactive
Cnga1 (GeneID 12788)	no change with or without drug	0.22	-1.52	1.57	0.96	inactive
Hnf4a (GeneID 15378)	no change with or without drug	0.79	0.17	0.79	1.01	inactive

Continued; the last 6 above are carried over.
target	combined z-score class	viability z-score with doxorubicin	viability z-score without drug	z-score of drug to no-drug ratio	doxorubicin viability vs non-targeting	Outcome
Dgkb (GeneID 217480)	no change with or without drug	-0.22	-1.52	1.01	0.92	inactive
Pdk2 (GeneID 18604)	no change with or without drug	0.34	-0.51	0.79	0.97	inactive
Cyp4f15 (GeneID 106648)	no change with or without drug	-0.22	-0.51	0.22	0.92	inactive
Oga (GeneID 76055)	no change with or without drug	-0.56	-0.17	-0.34	0.89	inactive
Cnga1 (GeneID 12788)	no change with or without drug	0.22	-1.52	1.57	0.96	inactive
Hnf4a (GeneID 15378)	no change with or without drug	0.79	0.17	0.79	1.01	inactive
Gemin6 (GeneID 67242)	no change with or without drug	0.22	1.18	-0.45	0.96	inactive
Ifngr2 (GeneID 15980)	no change with or without drug	-0.22	-0.34	0.11	0.92	inactive
Hyal1 (GeneID 15586)	no change with or without drug	-0.67	-0.84	0	0.88	inactive
Atxn7l2 (GeneID 72522)	no change with or without drug	0.22	1.18	-0.45	0.96	inactive
Cimap1c (GeneID 382075)	no change with or without drug	-0.9	0.84	-1.35	0.86	inactive
Mycbp2 (GeneID 105689)	no change with or without drug	-1.46	-0.51	-1.12	0.81	inactive
Ap1m2 (GeneID 11768)	high cell count without drug only	0.22	2.53	-1.24	0.96	inactive
Defb35 (GeneID 246084)	no change with or without drug	0.9	1.18	0.22	1.02	inactive
Sccpdh (GeneID 109232)	no change with or without drug	0.22	0.34	0.11	0.96	inactive
Tfr2 (GeneID 50765)	no change with or without drug	-0.67	0.17	-0.67	0.88	inactive
Erg28 (GeneID 58520)	high cell count with and without drug	2.81	2.19	1.35	1.19	inactive
Spcs1 (GeneID 69019)	no change with or without drug	0.22	1.35	-0.56	0.96	inactive
Htr2a (GeneID 15558)	no change with or without drug	-0.79	0.51	-1.01	0.87	inactive
Crisp2 (GeneID 22024)	no change with or without drug	0.45	1.85	-0.67	0.98	inactive
Ttc4 (GeneID 72354)	no change with or without drug	1.12	1.85	0	1.04	inactive
Inha (GeneID 16322)	no change with or without drug	-0.11	0.51	-0.34	0.93	inactive
Fezf2 (GeneID 54713)	no change with or without drug	0	1.52	-0.9	0.94	inactive
Ifnk (GeneID 387510)	no change with or without drug	0.22	-0.17	0.45	0.96	inactive
Fermt2 (GeneID 218952)	low cell count with and without drug	-2.92	-4.55	0.22	0.68	inactive
Slc19a2 (GeneID 116914)	no change with or without drug	-1.35	-1.85	0	0.82	inactive
Cc2d1a (GeneID 212139)	no change with or without drug	0	1.01	-0.56	0.94	inactive
Gria3 (GeneID 53623)	no change with or without drug	1.35	-0.17	1.69	1.06	inactive
Ercc2 (GeneID 13871)	no change with or without drug	-0.11	-1.01	0.67	0.93	inactive
Gpr55 (GeneID 227326)	no change with or without drug	-0.45	-0.51	0	0.9	inactive
Taf1c (GeneID 21341)	no change with or without drug	-0.45	1.18	-1.12	0.9	inactive
